# Taken from: PubChem BioAssay AID1053208 (Peter MacCallum Cancer Centre, 2014)
# Assay: 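Genes whose silencing cuts survival of bone tumour cells only with doxorubicin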 (primary screen)
# Cell system: mouse osteosarcoma cells, early-passage culture from an engineered mouse model of fibroblastic bone tumour
# Knock-down reagent: siRNA pool against mouse genes, 40 nM
# Timing: about 120 h (48 h before drug, then 72 h with drug)
# Challenge: doxorubicin 100 nM for 72 h, roughly 30-40% inhibitory dose
# Detection: 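Viability read as ATP luminescence after 72 h of 100 nM doxorubicin or none, duplicate wells averaged, scaled to non-targeting siRNA, then expressed as robust z-scores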
# Scale: viability z-score with doxorubicin and doxorubicin viability vs non-targeting: higher = more viable cells under doxorubicin; viability z-score without drug: higher = more viable cells with knock-down alone; z-score of drug to no-drug ratio: higher = less drug sensitisation by knock-down
# Call rule: 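Called active if knock-down leaves viability unchanged without drug (z within -2 to 2) but lowers it with doxorubicin (z at or under -2)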
# The whole screen tested about 17,000 reagents; below is a part drawn at random. 788 of them (4.7%) count as active. 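Calls rest on z-score classes alone; an extra cut-off of viability at most 70% of control was not applied to them.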
target gene,combined z-score class,viability z-score with doxorubicin,viability z-score without drug,z-score of drug to no-drug ratio,doxorubicin viability vs non-targeting,activity call
Plpp5,no change with or without drug,1.8,0.67,1.46,1.1,inactive
Rpl29,no change with or without drug,0.45,-0.51,1.01,0.98,inactive
Ptbp3,no change with or without drug,-1.12,-1.01,-0.45,0.84,inactive
Zfp24,no change with or without drug,0.67,0.84,0.22,1,inactive
Gstm5,no change with or without drug,1.01,-0.51,1.57,1.03,inactive
Tex46,no change with or without drug,0.34,-0.17,0.56,0.97,inactive
Pds5b,no change with or without drug,-1.57,-1.18,-0.79,0.8,inactive
Ddr1,no change with or without drug,0,-0.51,0.45,0.94,inactive
Or52ac1,no change with or without drug,0.56,1.52,-0.34,0.99,inactive
Luc7l3,low cell count with doxorubicin only,-2.25,-1.01,-1.69,0.74,active
Or5b98,no change with or without drug,-0.67,-0.84,0,0.88,inactive
Hsd17b4,no change with or without drug,-1.35,-1.52,-0.34,0.82,inactive
Inpp5k,no change with or without drug,0.67,-0.51,1.24,1,inactive
Cerk,no change with or without drug,-1.12,0,-1.12,0.84,inactive
Dynlt3,no change with or without drug,-1.8,-0.84,-1.24,0.78,inactive
Ccser1,high cell count with doxorubicin only,2.36,1.52,1.46,1.15,inactive
Nol9,no change with or without drug,1.57,-0.17,1.91,1.08,inactive
Eno1,no change with or without drug,-1.8,1.52,-2.59,0.78,inactive
Foxa1,no change with or without drug,-1.12,1.18,-1.8,0.84,inactive
Myo1g,no change with or without drug,1.35,-0.34,1.8,1.06,inactive
Mnat1,no change with or without drug,1.46,1.01,0.9,1.07,inactive
6820408C15Rik,no change with or without drug,0.9,-0.34,1.35,1.02,inactive
Sost,no change with or without drug,-0.22,-0.17,0,0.92,inactive
Elk3,high cell count with doxorubicin only,2.47,1.52,1.57,1.16,inactive
St14,no change with or without drug,-1.57,-1.18,-0.79,0.8,inactive
Lrrc46,low cell count with doxorubicin only,-2.36,0.51,-2.7,0.73,active
Pantr1,no change with or without drug,-1.35,0.17,-1.46,0.82,inactive
Rwdd4a,no change with or without drug,0.67,-0.17,0.9,1,inactive
AI504432,no change with or without drug,-0.22,-1.01,0.56,0.92,inactive
Mrm3,no change with or without drug,-0.22,-0.84,0.45,0.92,inactive
Wdtc1,no change with or without drug,0.79,0,0.9,1.01,inactive
Fem1a,no change with or without drug,-0.9,0,-0.79,0.86,inactive
Arl1,low cell count without drug only,-0.34,-2.53,1.8,0.91,inactive
Rap1a,no change with or without drug,1.57,0.51,1.35,1.08,inactive
Csnk2a2,no change with or without drug,0.45,1.52,-0.45,0.98,inactive
Timd2,no change with or without drug,0.45,-0.17,0.67,0.98,inactive
Or4k45,no change with or without drug,-0.22,-1.18,0.79,0.92,inactive
AI591529,no change with or without drug,-0.67,0.51,-0.9,0.88,inactive
Ccdc202,low cell count with doxorubicin only,-2.25,-0.67,-1.91,0.74,active
Hemk1,no change with or without drug,-0.22,1.52,-1.12,0.92,inactive
Slc7a8,high cell count with doxorubicin only,2.7,0.51,2.47,1.18,inactive
Bco2,no change with or without drug,0.9,0.84,0.45,1.02,inactive
Ifrd1,no change with or without drug,-0.56,0.51,-0.79,0.89,inactive
Chpf2,no change with or without drug,0.34,1.52,-0.56,0.97,inactive
Npy,no change with or without drug,-1.12,0.67,-1.46,0.84,inactive
Gns,no change with or without drug,0.45,-0.51,1.01,0.98,inactive
Hfe,no change with or without drug,-0.79,0,-0.67,0.87,inactive
Or2a52,no change with or without drug,-1.12,-1.18,-0.34,0.84,inactive
Rab8b,no change with or without drug,-0.67,0.67,-1.01,0.88,inactive
Kap,no change with or without drug,-0.67,0.84,-1.12,0.88,inactive

Reagents listed so far with an active call:
target gene,combined z-score class,viability z-score with doxorubicin,viability z-score without drug,z-score of drug to no-drug ratio,doxorubicin viability vs non-targeting,activity call
Luc7l3,low cell count with doxorubicin only,-2.25,-1.01,-1.69,0.74,active
Lrrc46,low cell count with doxorubicin only,-2.36,0.51,-2.7,0.73,active
Ccdc202,low cell count with doxorubicin only,-2.25,-0.67,-1.91,0.74,active
